Reference: patent publication US20230158001A1, “PHARMACEUTICAL COMPOSITION COMPRISING BENZIMIDAZOLE DERIVATIVE COMPOUND” (HK INNO.N CORPORATION, priority 2020, published 2023)

Assay: Pharmacokinetic interaction of tegoprazan and naproxen, alone or in combination (Cohort 1)
Set-up: species or system human (healthy adult males)
Conditions: male, human, in vivo, 500 mg; read-out: AUCτ, Geometric LS Mean

COc1ccc2cc([C@H](C)C(=O)O)ccc2c1 [Naproxen, naproxen, reference compound]
AUC: 743 ng·h/mL
